# Measured values: publication PMC9101188, “Human α-Defensin-6 Neutralizes Clostridioides difficile Toxins TcdA and TcdB by Direct Binding” (International Journal of Molecular Sciences, 2022)
# The chains behind the UniProt entries cited, without tags or fusion partners.
# UniProt P18177: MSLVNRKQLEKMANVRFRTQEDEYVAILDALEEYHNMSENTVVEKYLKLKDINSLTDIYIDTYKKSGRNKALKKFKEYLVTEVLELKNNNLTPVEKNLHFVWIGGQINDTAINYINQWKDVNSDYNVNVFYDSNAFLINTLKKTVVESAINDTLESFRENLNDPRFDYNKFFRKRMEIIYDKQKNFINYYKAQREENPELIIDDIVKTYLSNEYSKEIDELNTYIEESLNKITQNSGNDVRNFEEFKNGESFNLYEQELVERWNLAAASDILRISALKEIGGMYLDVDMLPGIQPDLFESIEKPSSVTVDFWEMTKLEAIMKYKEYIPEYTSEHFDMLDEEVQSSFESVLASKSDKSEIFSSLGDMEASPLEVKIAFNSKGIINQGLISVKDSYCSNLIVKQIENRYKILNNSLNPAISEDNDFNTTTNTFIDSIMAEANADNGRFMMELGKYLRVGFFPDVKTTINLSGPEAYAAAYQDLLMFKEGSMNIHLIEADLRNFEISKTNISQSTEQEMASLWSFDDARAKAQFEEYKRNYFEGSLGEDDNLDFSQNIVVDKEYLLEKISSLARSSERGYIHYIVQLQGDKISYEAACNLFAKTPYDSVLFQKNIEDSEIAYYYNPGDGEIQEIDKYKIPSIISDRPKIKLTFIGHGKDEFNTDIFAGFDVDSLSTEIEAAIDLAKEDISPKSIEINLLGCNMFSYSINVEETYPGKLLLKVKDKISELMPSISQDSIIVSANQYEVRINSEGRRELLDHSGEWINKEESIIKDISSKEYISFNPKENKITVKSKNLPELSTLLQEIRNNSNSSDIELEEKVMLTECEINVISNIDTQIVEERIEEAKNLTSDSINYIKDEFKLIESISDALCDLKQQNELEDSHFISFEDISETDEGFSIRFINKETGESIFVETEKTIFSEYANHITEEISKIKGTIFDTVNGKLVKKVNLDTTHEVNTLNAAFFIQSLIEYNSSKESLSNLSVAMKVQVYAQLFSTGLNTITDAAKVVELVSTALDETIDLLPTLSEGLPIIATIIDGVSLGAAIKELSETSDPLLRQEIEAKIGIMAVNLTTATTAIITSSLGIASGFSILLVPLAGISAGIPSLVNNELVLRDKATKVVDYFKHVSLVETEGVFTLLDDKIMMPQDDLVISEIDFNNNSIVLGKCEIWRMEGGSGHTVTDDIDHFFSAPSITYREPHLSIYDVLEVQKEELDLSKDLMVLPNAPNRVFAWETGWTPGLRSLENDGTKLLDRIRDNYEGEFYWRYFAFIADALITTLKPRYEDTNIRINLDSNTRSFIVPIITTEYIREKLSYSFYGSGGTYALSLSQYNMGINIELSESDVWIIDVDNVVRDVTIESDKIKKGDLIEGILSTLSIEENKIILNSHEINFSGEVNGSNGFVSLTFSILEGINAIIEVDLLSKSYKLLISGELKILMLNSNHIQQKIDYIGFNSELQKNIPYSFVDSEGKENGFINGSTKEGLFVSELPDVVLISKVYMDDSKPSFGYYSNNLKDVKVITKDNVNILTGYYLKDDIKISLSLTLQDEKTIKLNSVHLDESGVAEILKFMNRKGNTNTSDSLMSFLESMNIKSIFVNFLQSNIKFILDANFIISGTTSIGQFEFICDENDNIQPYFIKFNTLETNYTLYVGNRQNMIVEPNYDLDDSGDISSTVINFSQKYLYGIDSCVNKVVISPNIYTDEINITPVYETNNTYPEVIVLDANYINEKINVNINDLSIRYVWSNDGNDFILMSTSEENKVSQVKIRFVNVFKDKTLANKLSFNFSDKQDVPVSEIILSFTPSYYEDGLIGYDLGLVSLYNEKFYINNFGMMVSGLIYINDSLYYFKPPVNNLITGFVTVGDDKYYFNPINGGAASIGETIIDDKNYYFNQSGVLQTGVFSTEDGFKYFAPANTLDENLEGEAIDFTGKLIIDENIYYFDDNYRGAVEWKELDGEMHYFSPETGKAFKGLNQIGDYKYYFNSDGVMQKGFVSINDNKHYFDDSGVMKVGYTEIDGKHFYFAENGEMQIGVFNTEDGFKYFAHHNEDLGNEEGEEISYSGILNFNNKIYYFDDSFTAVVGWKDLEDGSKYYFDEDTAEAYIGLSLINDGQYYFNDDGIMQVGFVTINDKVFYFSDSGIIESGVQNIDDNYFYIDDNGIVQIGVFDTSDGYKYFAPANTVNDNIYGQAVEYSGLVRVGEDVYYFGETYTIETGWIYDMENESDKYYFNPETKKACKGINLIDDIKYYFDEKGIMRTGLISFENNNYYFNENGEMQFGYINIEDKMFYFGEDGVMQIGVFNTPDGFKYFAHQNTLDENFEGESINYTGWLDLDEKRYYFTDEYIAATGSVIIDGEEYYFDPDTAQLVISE
# Results are given in words; binding and its absence hold for the method and conditions named. Some binding calls cover weakened binding; strength is not graded here.
# Target: biotinylated TcdB (Clostridioides difficile toxin B) (Clostridioides difficile VPI 10463) (UniProt P18177)
# Assay: SPR; biotinylated TcdB (2400 RU) immobilised on a streptavidin sensor chip; defensins injected 4 min, dissociation at least 30 min, 25 µL/min, 25 °C; 10 mM HEPES, 150 mM NaCl, 50 µM EDTA, 0.005% Tween 20, pH 7.0; α-def-6 0.1-6 µM, β-def-1 6 µM; both purified
binder,measurement,value
"DHYNCVSSGGQCLYSACPIFTKIQGTCYRGKAKCCK (peptide, UniProt P60022 33-68) [β-defensin-1]",binding,binds weakly
